Assay results taken from PubChem BioAssay AID602313 (National Center for Advancing Translational Sciences (NCATS), 2012).
The whole screen tested about 390,000 compounds, of which about 760 (0.19%) were called active. The shares of active, inactive and inconclusive entries below differ from those in the screen. Calls follow the shape of the dose curve; as a rule, active = well fitted inhibition curve with a large enough effect; inconclusive = small, poorly fitted or top-dose-only effect; inactive = flat fitted curve, though single readings scatter. Where the call is inconclusive, the potency comes from a doubtful curve fit.

Test: qHTS for Inhibitors of Vif-A3F Interactions: qHTS; also: nearly all actives have a fitted effect of over 65% in size
Conditions: HeLa A3F-eYFP + Vif (tagged APOBEC3F with the HIV-1 protein that degrades it), YFP fluorescence increase; series mostly up to 46.1 µM
Outline: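 Fluorescence increase (Ex 488/Em 500-530) after overnight compound treatment at 37 deg C flags inhibition of Vif-driven A3F-eYFP loss in stable HeLa A3F-eYFP/Vif cells seeded overnight beforehand.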
Potency is read from the fitted curve at half-maximal effect.

Row | SMILES | Potency
1 | CNc1cccc2c1C(=O)c1ccccc1C2=O | inactive
2 | O=C(N/N=C/c1ccc(N2CCCCC2)o1)c1ccccc1[N+](=O)[O-] | inconclusive: 35.5 µM [inhibitor, single point]
3 | CCCCn1c(N)c(N(CCC(C)C)C(=O)COC(=O)c2ccc3ccccc3c2)c(=O)[nH]c1=O | inconclusive: 35.5 µM [inhibitor, single point]
4 | Cc1cccc(C)c1OCC(=O)N=Nc1c(O)[nH]c2ccc(Br)cc12 | inconclusive: 31.6 µM [inhibitor, single point]
5 | O=C1/C(=C\c2ccc(O)c(O)c2)SC(=S)N1Cc1ccccc1 | inconclusive: 20 µM [inhibitor, partial curve, poor fit]
6 | CCCNC(=O)C(Cc1ccc(Cl)cc1)NC(=O)c1ccc(-c2ccccc2)cc1 (configuration not stated) | inconclusive: 10 µM [inhibitor, partial curve, poor fit]
7 | Cc1nnc(NC(=O)c2sc3nc(-c4cccs4)cc(C(F)(F)F)c3c2N)s1 | active: 7.08 µM
8 | O=C(c1cc(Cl)nc2ccccc12)N(Cc1nnc(-c2ccccc2Cl)o1)C1CC1 | inconclusive: 35.5 µM [inhibitor, single point]
9 | O=C(Oc1cccc(Nc2ncnc3ccccc23)c1)c1cccnc1 | inconclusive: 3.16 µM [inhibitor, full curve]
10 | Fc1ccc(Nc2cccc3nccnc23)cc1 | inactive
11 | CCS(=O)(=O)c1ccc2oc(Nc3ccc(C(C)C)cc3)nc2c1 | inactive
12 | CCCCN(c1ccccc1)S(=O)(=O)c1cccc(C(=O)Nc2c(C)n(C)n(-c3ccccc3)c2=O)c1 | inconclusive: 20 µM [inhibitor, partial curve, poor fit]
13 | CN(C)CCNC(=O)C(=O)Nc1ccc2c(c1)N(S(=O)(=O)c1cccs1)CCC2 | inconclusive: 3.16 µM [inhibitor, partial curve, poor fit]
14 | COc1ccc(O)c(/C=N/NC(=S)Nc2cccc(S(=O)(=O)N(C)C)c2)c1 | inactive
15 | O=C(Nc1nc(-c2ccccn2)cs1)c1cc2ccccc2o1 | inconclusive: 35.5 µM [inhibitor, single point]
16 | CCC1CCCCN1CCCNC(=O)c1ccc2c(c1)N(Cc1cccc(Cl)c1)C(=O)c1ccccc1S2(=O)=O (configuration not stated) | inconclusive: 35.5 µM [inhibitor, single point]
17 | COc1ccc(-c2csc3nc(-c4ccccc4F)oc(=O)c23)cc1 | inconclusive: 5.62 µM [inhibitor, single point]
18 | O=C(Nc1nc(-c2ccccn2)cs1)C1CC(=O)N(c2ccc3c(c2)OCCO3)C1 (configuration not stated) | inconclusive: 35.5 µM [inhibitor, single point]
19 | CCN(CC)S(=O)(=O)c1ccc(N/N=C(\C)c2ccc(OC)cc2O)nc1 | inconclusive: 4.47 µM [inhibitor, single point]
20 | COc1ccc([N+](=O)[O-])cc1N(CC1CO1)S(=O)(=O)c1ccc(C)cc1 (configuration not stated) | inconclusive: 3.55 µM [inhibitor, single point]
21 | O=C(Cn1c2[n+](c3ccccc31)CC(O)CS2)c1ccccc1 (configuration not stated) | inconclusive: 0.562 µM [inhibitor, full curve, poor fit]
22 | Clc1ccccc1-c1nc2ccccc2[nH]1 | inconclusive: 3.16 µM [inhibitor, single point]
23 | COP(=O)(OC)c1nc(-c2cccc3ccccc23)oc1NCCc1ccccc1 | inactive

Row | SMILES | Potency
24 | NC(=O)c1ccc(NC(=O)COC(=O)c2n[nH]c3ccccc23)cc1 | inconclusive: 20 µM [inhibitor, single point]
25 | COc1cc(C(=O)Nc2cc(C)nn2-c2ccccc2)cc(OC)c1OC | inconclusive: 25.1 µM [inhibitor, single point]
26 | CC(C)C1S/C(=N/N=C/c2cccs2)NC1=O (configuration not stated) | inconclusive: 35.5 µM [inhibitor, partial curve, poor fit]
27 | Cc1cccc(-n2c(O)c(C=Nc3ccc4c(c3)OCO4)c3ccccc3c2=O)n1 | inactive
28 | COc1ccc(OC)c(/C=C2\S/C(=N/NC(=O)c3ccc4ccccc4c3)NC2=O)c1 | inconclusive: 35.5 µM [inhibitor, single point]
29 | CN(CC(=O)Nc1ccccc1F)CC(=O)Nc1ccc(F)c(F)c1F | inactive
30 | O=C1C(NS(=O)(=O)c2ccc(Br)cc2)=C(N2CCCCC2)C(=O)c2ccccc21 | inactive
31 | O=C(Nc1nnc(-c2cccs2)o1)c1cccc(C(F)(F)F)c1 | inconclusive: 35.5 µM [inhibitor, single point]
32 | CC(C)C(NS(=O)(=O)c1cccs1)C(=O)N(C)Cc1ccccc1 (configuration not stated) | inactive
33 | FC(F)(F)c1cccc(-n2c(Cn3nnc4ccccc43)n[nH]c2=S)c1 | inconclusive: 5.62 µM [inhibitor, single point]
34 | CCCCn1c(N)c(N(Cc2ccccc2OC)C(=O)COc2ccccc2OC)c(=O)[nH]c1=O | inconclusive: 22.4 µM [inhibitor, single point]
35 | O=C(CCNc1cccc(F)c1)c1cc2ccccc2o1 | inactive
36 | COc1cccc(Cn2cc(C)cc(NC(=O)NCc3ccccc3)c2=O)c1 | inconclusive: 35.5 µM [inhibitor, single point]
37 | COc1cccc(N(CC(=O)NCCN2CCOCC2)S(=O)(=O)c2ccccc2)c1 | inconclusive: 2 µM [inhibitor, full curve, poor fit]
38 | CSCCC(NS(=O)(=O)c1ccc(C)cc1)C(=O)N1CCN(C(C)=O)CC1 (configuration not stated) | inconclusive: 5.62 µM [inhibitor, single point]
39 | Cc1cc(C)c2c(N)c(C(=O)N/N=C/c3cccs3)sc2n1 | inconclusive: 3.98 µM [inhibitor, full curve, poor fit]
40 | COc1cc(NC(=O)c2cccc(COCC(F)(F)C(F)F)c2)cc(OC)c1OC | inconclusive: 35.5 µM [inhibitor, single point]
41 | COc1ccc(OC)c(C2=NS(=O)(=O)N(C)C(C(=O)N3CCC4(CC3)OCCO4)=C2)c1 | inactive
42 | CCN(CC)S(=O)(=O)c1cc(NC(=S)NC(=O)C2CCCC2)ccc1C | inconclusive: 0.355 µM [inhibitor, full curve, poor fit]
43 | CCOc1ccc(-n2c(C)c(C(=O)O)c3cc(OC)ccc32)cc1 | inconclusive: 2.82 µM [inhibitor, full curve]
44 | CCCn1c(=N)c(C(=O)NC2CCCCC2)cc2c(=O)n3cc(C)ccc3nc21 | inconclusive: 22.4 µM [inhibitor, partial curve, poor fit]
45 | COC(=O)c1ccc(CN2CCCC(CNC(=O)Cc3ccc(OC)cc3)C2)cc1 (configuration not stated) | inactive
46 | O=S(=O)(Nc1nc2ccccc2nc1Cl)c1ccccc1 | inconclusive: 22.4 µM [inhibitor, single point]

Copied from above, nos. 38–40
Row | SMILES | Potency
38 | CSCCC(NS(=O)(=O)c1ccc(C)cc1)C(=O)N1CCN(C(C)=O)CC1 (configuration not stated) | inconclusive: 5.62 µM [inhibitor, single point]
39 | Cc1cc(C)c2c(N)c(C(=O)N/N=C/c3cccs3)sc2n1 | inconclusive: 3.98 µM [inhibitor, full curve, poor fit]
40 | COc1cc(NC(=O)c2cccc(COCC(F)(F)C(F)F)c2)cc(OC)c1OC | inconclusive: 35.5 µM [inhibitor, single point]

More records:

Row | SMILES | Potency
47 | C=Cc1cc2c(cc1O)CCC1C2CCC2(C)C(O)CCC12 (configuration not stated) | inactive
48 | O=C(CCN1Cc2ccccc2C1)c1ccc2c(c1)OCCO2 | inactive
49 | CC(=O)Nc1sc2c(c1-c1nc3ccccc3s1)CCN(C(C)C)C2 | active: 11.2 µM
50 | O=C(Nc1ccc(NC(=O)c2cccnc2)cc1)c1ccccc1 | inconclusive: 35.5 µM [inhibitor, single point]
51 | COc1ccccc1C(=O)N=c1sc2c(C)ccc(OC)c2n1C | inconclusive: 35.5 µM [inhibitor, single point]
52 | COc1ccc(-c2cc(C(=O)Nc3c(C)nn(Cc4ccccc4C)c3C)no2)cc1 | inactive
53 | CCOc1ccc(C(=O)NCC(=O)NCC(c2ccc(OC)cc2)N2CCCC2)cc1 (configuration not stated) | inconclusive: 3.16 µM [inhibitor, partial curve, poor fit]
54 | COc1cc(N=Nc2cccc(S(N)(=O)=O)c2)c2ccccc2c1N | active: 25.1 µM
55 | c1csc(C2=Nn3c(nnc3-c3ccncc3)SC2)c1 | inactive
56 | Cc1ccc(/C=C/C(=O)Nc2nccs2)o1 | inconclusive: 35.5 µM [inhibitor, single point]
57 | N#Cc1cc2ccccc2nc1SCC(=O)Nc1ccc(S(=O)(=O)N2CCCC2)cc1 | inconclusive: 14.1 µM [inhibitor, partial curve, poor fit]
58 | CCC(C(=O)Nc1ccccc1Cl)n1nc(C)c2c(C)n(-c3ccccc3)nc2c1=O (configuration not stated) | inactive
59 | CCN(CC)CCCn1c2c(c(SCC(=O)Nc3ccc(OC(F)(F)F)cc3)nc1=O)CCC2 | inconclusive: 7.94 µM [inhibitor, partial curve, poor fit]
60 | CCOc1ccc(CNC(=O)c2cccc(NC(=O)C3=C(C)OCCS3)c2)cc1 | inactive
61 | CCc1ccccc1NC(=O)CN1CCN(CC(=O)Nc2cc(C)ccc2OC)CC1 | inconclusive: 6.31 µM [inhibitor, single point]
62 | CC1(C)Cc2cccc(OCC(=O)N3CCN(c4ccc(F)cc4)CC3)c2O1 | inconclusive: 3.55 µM [inhibitor, single point]
63 | Oc1ccc(/C=C/c2cc(O)cc(O)c2)cc1 | inactive
64 | CC(=O)Cc1nsc(Nc2ccc(C)cc2)n1 | inconclusive: 15.8 µM [inhibitor, partial curve, poor fit]
65 | CCOC(=O)N1CCN(C(c2cccnc2)c2ccc3cccnc3c2O)CC1 (configuration not stated) | inconclusive: 5.62 µM [inhibitor, single point]
66 | O=C(O)c1cccc(N2C(=O)/C(=C/c3ccc(SCc4ccc(Cl)cc4)o3)SC2=S)c1 | inconclusive: 15.8 µM [inhibitor, single point]
67 | COc1ccc(-n2c(N)c(C#N)c3ccc([N+](=O)[O-])cc3c2=O)cc1 | inconclusive: 12.6 µM [inhibitor, partial curve, poor fit]
